Compound in the experiment: Cc1cc(ccc1-c1ccccc1)C(=O)N1CCCN(CC1)C(=O)CCl [compound 10]
In words: probe-labelled cysteine peptide fold change vs DMSO (competition) (log2 fold change); higher = less target engagement (more negative = stronger competition). Particulars: THP-1, incubation time: 4 h.

Chains of the proteins cited; added tags and fusions are not shown. Lines headed by an entry give the natural chain unless they say otherwise; changes in a name come on top.
UniProt Q9BYW2: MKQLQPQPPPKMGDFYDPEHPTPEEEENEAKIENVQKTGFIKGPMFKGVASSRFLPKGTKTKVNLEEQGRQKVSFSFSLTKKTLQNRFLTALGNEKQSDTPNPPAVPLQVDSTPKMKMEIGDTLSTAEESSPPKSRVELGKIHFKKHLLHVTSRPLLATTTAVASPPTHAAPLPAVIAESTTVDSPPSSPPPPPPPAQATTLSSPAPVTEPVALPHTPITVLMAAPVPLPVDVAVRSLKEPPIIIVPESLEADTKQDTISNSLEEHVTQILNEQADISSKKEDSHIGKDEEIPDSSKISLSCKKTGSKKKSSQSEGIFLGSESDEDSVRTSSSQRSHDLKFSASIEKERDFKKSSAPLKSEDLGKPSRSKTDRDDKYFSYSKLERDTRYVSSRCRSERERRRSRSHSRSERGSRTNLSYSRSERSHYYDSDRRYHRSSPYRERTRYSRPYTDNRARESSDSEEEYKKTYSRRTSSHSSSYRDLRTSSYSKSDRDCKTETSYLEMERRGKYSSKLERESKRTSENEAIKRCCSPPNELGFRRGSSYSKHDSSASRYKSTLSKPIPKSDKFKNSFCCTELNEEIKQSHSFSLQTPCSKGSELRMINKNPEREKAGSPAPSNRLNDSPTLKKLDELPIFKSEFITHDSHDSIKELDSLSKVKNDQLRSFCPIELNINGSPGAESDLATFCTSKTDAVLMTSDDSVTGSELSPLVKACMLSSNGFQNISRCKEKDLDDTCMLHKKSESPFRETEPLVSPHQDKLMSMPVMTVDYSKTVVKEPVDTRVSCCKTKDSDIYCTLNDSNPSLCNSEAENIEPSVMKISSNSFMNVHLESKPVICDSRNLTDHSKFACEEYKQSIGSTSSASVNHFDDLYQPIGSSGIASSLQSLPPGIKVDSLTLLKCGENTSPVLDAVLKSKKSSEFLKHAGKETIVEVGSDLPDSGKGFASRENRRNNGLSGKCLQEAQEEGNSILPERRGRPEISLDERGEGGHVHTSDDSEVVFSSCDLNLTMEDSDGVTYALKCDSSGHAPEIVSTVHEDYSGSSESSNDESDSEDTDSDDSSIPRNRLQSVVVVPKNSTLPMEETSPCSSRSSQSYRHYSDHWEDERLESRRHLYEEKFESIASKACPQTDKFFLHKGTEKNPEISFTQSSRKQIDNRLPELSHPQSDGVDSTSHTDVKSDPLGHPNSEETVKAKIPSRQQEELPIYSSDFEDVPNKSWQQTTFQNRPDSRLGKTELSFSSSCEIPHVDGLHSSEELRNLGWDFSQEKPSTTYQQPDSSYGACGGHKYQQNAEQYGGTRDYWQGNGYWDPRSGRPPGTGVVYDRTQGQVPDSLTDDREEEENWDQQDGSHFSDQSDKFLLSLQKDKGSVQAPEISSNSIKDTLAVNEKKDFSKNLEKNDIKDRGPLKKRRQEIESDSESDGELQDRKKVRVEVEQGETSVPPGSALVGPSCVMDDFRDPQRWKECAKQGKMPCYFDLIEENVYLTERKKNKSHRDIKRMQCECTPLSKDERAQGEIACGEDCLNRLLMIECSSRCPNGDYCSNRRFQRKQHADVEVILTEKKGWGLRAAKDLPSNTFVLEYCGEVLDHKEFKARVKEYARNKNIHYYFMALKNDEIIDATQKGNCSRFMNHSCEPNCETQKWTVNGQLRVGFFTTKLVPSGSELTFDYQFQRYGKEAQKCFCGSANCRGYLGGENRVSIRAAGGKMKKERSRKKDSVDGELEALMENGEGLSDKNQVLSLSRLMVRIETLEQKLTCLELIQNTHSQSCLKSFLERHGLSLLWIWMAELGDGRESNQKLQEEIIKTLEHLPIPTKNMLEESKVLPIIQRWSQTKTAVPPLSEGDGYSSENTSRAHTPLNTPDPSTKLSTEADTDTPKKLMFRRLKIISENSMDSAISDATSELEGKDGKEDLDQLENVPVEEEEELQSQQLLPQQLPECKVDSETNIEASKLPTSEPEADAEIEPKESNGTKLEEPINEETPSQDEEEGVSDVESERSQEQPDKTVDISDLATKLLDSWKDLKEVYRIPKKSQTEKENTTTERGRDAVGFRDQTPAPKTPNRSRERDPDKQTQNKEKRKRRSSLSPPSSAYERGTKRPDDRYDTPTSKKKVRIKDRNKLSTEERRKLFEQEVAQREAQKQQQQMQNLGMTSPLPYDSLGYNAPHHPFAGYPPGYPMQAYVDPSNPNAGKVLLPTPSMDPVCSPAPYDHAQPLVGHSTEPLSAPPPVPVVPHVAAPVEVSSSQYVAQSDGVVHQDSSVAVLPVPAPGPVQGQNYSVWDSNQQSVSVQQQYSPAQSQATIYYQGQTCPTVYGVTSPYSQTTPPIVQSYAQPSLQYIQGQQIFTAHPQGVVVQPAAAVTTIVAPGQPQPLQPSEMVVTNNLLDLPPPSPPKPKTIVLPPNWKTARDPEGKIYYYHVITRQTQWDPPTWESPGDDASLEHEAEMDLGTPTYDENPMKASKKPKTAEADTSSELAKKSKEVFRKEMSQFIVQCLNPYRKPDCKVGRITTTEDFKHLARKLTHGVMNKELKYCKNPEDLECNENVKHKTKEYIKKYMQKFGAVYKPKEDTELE
UniProt Q9UBX3: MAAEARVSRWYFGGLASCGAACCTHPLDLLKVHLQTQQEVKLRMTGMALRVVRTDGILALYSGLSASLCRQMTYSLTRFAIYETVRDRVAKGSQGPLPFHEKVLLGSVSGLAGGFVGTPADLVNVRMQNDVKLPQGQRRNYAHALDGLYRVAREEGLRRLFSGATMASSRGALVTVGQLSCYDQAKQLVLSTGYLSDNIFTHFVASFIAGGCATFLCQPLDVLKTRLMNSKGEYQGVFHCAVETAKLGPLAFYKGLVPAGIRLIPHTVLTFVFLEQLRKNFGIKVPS
UniProt P78324, whole entry, looked up: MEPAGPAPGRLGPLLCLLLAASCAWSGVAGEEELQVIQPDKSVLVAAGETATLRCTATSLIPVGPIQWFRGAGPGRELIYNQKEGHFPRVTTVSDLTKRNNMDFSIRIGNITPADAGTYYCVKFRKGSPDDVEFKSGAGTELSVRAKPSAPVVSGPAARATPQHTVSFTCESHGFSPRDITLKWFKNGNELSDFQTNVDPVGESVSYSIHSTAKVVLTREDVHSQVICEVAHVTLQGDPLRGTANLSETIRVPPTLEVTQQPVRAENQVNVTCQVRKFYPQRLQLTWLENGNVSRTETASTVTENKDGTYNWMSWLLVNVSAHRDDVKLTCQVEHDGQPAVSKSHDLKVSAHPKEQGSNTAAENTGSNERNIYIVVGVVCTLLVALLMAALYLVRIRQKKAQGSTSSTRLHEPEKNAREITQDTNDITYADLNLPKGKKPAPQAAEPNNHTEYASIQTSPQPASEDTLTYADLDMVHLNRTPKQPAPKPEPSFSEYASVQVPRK
UniProt Q96EB6: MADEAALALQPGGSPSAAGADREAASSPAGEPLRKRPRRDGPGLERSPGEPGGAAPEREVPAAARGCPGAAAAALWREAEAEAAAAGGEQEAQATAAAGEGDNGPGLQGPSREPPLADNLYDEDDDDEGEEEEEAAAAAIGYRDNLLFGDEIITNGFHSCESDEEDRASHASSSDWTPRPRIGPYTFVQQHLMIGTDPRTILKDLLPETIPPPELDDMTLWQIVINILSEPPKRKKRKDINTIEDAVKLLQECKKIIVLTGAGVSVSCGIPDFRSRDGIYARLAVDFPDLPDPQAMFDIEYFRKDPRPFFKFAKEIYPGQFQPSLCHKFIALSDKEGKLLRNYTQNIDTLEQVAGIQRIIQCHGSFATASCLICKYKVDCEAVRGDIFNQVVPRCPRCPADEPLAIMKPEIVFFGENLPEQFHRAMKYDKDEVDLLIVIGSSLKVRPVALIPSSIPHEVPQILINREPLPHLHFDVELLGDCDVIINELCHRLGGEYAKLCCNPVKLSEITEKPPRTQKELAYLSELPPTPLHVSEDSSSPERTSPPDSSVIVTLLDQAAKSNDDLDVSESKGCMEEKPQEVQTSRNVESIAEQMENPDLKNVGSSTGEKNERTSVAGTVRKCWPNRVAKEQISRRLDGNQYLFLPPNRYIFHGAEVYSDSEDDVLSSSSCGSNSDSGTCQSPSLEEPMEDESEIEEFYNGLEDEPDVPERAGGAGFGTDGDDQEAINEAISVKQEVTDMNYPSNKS
UniProt P23246: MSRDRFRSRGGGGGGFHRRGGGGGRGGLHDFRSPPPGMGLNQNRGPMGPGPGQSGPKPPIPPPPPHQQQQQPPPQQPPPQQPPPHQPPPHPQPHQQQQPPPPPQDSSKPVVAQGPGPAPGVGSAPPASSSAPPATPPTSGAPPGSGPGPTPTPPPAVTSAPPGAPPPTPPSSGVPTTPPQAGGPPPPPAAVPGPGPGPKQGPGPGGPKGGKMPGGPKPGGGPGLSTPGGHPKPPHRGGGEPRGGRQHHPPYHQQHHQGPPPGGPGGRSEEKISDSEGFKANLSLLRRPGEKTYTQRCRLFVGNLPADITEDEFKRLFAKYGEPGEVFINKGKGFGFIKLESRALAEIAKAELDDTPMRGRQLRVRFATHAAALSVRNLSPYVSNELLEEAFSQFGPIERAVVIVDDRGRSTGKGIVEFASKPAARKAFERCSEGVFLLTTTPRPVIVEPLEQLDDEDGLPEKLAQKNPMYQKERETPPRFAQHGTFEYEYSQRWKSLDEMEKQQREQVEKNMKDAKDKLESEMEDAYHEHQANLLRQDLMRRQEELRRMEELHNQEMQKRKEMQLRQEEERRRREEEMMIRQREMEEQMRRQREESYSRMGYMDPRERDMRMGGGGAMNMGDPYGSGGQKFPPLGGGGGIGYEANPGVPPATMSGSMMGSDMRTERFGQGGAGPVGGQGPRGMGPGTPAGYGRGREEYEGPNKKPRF
UniProt Q12874: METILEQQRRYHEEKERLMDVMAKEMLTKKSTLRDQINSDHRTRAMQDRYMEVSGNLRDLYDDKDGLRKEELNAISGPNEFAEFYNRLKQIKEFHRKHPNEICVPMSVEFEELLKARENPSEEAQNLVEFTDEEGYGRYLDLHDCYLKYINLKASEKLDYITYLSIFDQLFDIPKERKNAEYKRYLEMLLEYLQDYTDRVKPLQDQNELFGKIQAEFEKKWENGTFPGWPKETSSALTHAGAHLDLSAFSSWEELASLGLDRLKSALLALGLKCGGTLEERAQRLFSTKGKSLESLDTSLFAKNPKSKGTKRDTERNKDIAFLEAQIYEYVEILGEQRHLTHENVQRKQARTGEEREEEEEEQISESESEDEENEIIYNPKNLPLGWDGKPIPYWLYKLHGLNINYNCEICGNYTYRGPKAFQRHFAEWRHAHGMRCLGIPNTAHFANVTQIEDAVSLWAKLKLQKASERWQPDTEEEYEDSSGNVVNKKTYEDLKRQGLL
UniProt Q14141: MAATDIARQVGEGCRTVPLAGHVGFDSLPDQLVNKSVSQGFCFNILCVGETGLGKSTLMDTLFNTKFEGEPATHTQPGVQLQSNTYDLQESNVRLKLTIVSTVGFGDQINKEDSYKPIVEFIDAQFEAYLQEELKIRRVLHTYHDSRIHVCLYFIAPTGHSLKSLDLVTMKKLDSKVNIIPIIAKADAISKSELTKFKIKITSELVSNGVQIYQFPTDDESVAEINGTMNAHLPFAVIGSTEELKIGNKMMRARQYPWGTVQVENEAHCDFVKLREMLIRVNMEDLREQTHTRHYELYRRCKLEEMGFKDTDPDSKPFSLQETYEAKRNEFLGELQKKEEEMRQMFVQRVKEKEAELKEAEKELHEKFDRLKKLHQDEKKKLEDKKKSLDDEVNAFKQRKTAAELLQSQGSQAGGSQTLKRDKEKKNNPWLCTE
UniProt Q96B97, whole entry, looked up: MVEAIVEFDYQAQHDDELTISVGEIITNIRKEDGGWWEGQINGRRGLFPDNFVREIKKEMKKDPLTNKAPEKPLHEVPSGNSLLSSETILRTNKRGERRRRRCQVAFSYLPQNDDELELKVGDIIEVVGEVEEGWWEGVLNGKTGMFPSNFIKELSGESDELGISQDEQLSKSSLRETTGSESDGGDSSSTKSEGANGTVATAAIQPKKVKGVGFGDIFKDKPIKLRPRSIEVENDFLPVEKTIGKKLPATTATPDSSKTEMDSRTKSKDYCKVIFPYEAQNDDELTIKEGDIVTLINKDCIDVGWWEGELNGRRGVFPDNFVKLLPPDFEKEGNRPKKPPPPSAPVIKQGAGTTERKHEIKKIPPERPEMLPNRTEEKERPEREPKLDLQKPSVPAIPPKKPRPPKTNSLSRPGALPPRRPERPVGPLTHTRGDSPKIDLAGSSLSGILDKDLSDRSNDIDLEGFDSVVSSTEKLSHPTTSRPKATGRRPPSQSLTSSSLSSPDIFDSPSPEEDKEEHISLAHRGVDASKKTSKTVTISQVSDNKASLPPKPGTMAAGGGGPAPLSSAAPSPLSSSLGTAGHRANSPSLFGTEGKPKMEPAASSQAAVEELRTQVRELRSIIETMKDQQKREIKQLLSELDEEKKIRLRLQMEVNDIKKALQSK
UniProt P63208, whole entry, looked up: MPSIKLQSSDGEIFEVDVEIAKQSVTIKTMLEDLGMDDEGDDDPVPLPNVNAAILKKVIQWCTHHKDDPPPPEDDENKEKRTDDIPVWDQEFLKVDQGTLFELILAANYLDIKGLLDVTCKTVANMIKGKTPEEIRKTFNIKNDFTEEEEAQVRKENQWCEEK

The values that follow come from the supplement of paper PMC12067093, “Discovery and optimisation of a covalent ligand for TRIM25 and its application to targeted protein ubiquitination” (Chemical Science, 2025).

The other results are listed elsewhere or left out.
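Further: competitive profiling in live THP-1 cells: cysteine peptides tagged with an iodoacetamide desthiobiotin (IA-DTB) probe, intensity after compound treatment relative to DMSO-treated cells.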

Consider “SLC25A20_O43772_23_NLLAGGFGGVCLVFVGHPLDTVK (UniProt O43772)”, for which the “probe-labelled cysteine peptide fold change” value is -0.0809 (10 µM) and 0.136 (50 µM).

In the case of “SETD2_Q9BYW2_1516_AQGEIACGEDCLNR (UniProt Q9BYW2)”, the “probe-labelled cysteine peptide fold change” value (10 µM) is -0.275 and the “probe-labelled cysteine peptide fold change” value (50 µM) is -0.436.

As to “SHPRH_Q149N8_1229_NVIESATVCHLRPAR (UniProt Q149N8)”, the “probe-labelled cysteine peptide fold change” value reads like this: (10 µM) 0.0933; (50 µM) 0.273.

On to “SLC25A10_Q9UBX3_23_WYFGGLASCGAACCTHPLDLLK (UniProt Q9UBX3)”, for which the “probe-labelled cysteine peptide fold change” value reads like this: (10 µM) 0.166; (50 µM) 0.36.

With “SERPINF2_P08697_152_LCQDLGPGAFR (UniProt P08697)”, the “probe-labelled cysteine peptide fold change” value is -0.277 (10 µM) and -0.584 (50 µM).

For the target “SIMC1_Q8NDZ2_603_QHLQQSIANMVLSCDK (UniProt Q8NDZ2)”, the “probe-labelled cysteine peptide fold change” value (10 µM) is -0.25 and the “probe-labelled cysteine peptide fold change” value (50 µM) is -0.542.

In the case of “SIRPA_P78324_331_LTCQVEHDGQPAVSK (UniProt P78324)”, the “probe-labelled cysteine peptide fold change” value is, setting by setting: (10 µM) -0.201; (50 µM) -0.044.

“SIRT1_Q96EB6_326_EIYPGQFQPSLCHK (UniProt Q96EB6)”: the “probe-labelled cysteine peptide fold change” value (10 µM) was -0.0594 and the “probe-labelled cysteine peptide fold change” value (50 µM) is -0.388.

“SETD2_Q9BYW2_1766_LTCLELIQNTHSQSCLK (UniProt Q9BYW2)”: the “probe-labelled cysteine peptide fold change” value is 0.117 (10 µM) and 0.068 (50 µM).

In the case of “SLC25A13_Q9UJS0_503_DIPFSAIYFPCYAHVK (UniProt Q9UJS0)”, the “probe-labelled cysteine peptide fold change” value by setting is: (10 µM) 0.0164; (50 µM) 0.0697.

Consider “SFPQ_P23246_431_CSEGVFLLTTTPR (UniProt P23246)”, for which the “probe-labelled cysteine peptide fold change” value runs as follows: (10 µM) 0.045; (50 µM) 0.253.

As for “SF3A3_Q12874_408_LHGLNINYNCEICGNYTYR (UniProt Q12874)”, the “probe-labelled cysteine peptide fold change” value (10 µM) is -0.143 and the “probe-labelled cysteine peptide fold change” value (50 µM) was -0.0252.

As to “SF3A3_Q12874_145_YLDLHDCYLK (UniProt Q12874)”, the “probe-labelled cysteine peptide fold change” value runs as follows: (10 µM) 0.0593; (50 µM) 0.0982.

As for “SF3B1_O75533_1035_VQENCIDLVGR (UniProt O75533)”, the “probe-labelled cysteine peptide fold change” value (10 µM) is -0.0527 and the “probe-labelled cysteine peptide fold change” value (50 µM) was -0.166.

Take “SLC27A3_Q5K4L6_112_ALAAAAADPEGPEGGCSLAWR (UniProt Q5K4L6)”: the “probe-labelled cysteine peptide fold change” value by setting is: (10 µM) -0.185; (50 µM) -0.196.

Regarding “SIAE_Q9HAT2_367_MPNTFMAVAMDLCDRDSPFGSIHPR (UniProt Q9HAT2)”, the “probe-labelled cysteine peptide fold change” value is, setting by setting: (10 µM) -0.0923; (50 µM) -0.465.

Consider “SLC25A1_P53007_70_GIGDCVR (UniProt P53007)”, for which the “probe-labelled cysteine peptide fold change” value came out at 0.0396 (10 µM) and 0.0551 (50 µM).

For the target “SHKBP1_Q8TBC3_491_ILALESADGHGGCSAGNDIGPYGER (UniProt Q8TBC3)”, the “probe-labelled cysteine peptide fold change” value (10 µM) was -0.0949 and the “probe-labelled cysteine peptide fold change” value (50 µM) was -0.0128.

“SHMT2_P34897_241_MREVCDEVK (UniProt P34897)”: the “probe-labelled cysteine peptide fold change” value reads like this: (10 µM) 0.0274; (50 µM) -0.0366.

With “SETDB1_Q15047_819_CLDDIAK (UniProt Q15047)”, the “probe-labelled cysteine peptide fold change” value (10 µM) was -0.0539 and the “probe-labelled cysteine peptide fold change” value (50 µM) was -0.0967.

For the target “SEPT6_Q14141_42+47_SVSQGFCFNILCVGETGLGK (UniProt Q14141)”, the “probe-labelled cysteine peptide fold change” value was 0.0263 (10 µM) and 0.409 (50 µM).

Take “SIRT1_Q96EB6_371_IIQCHGSFATASCLICK (UniProt Q96EB6)”: the “probe-labelled cysteine peptide fold change” value by setting is: (10 µM) 0.14; (50 µM) -0.175.

“SIRT1_Q96EB6_574_GCMEEKPQEVQTSR (UniProt Q96EB6)”: the “probe-labelled cysteine peptide fold change” value by setting is: (10 µM) -0.17; (50 µM) -0.335.

“SEPT6_Q14141_47_SVSQGFCFNILCVGETGLGK (UniProt Q14141)”: the “probe-labelled cysteine peptide fold change” value reads like this: (10 µM) 0.578; (50 µM) 0.368.

As to “SLC25A10_Q9UBX3_240_GEYQGVFHCAVETAK (UniProt Q9UBX3)”, the “probe-labelled cysteine peptide fold change” value runs as follows: (10 µM) 0.0083; (50 µM) 0.118.

Take “SH3KBP1_Q96B97_301_DCIDVGWWEGELNGR (UniProt Q96B97)”: the “probe-labelled cysteine peptide fold change” value reads like this: (10 µM) -0.0215; (50 µM) 0.0215.

Take “SF3B3_Q15393_1156_SEHPPLCGR (UniProt Q15393)”: the “probe-labelled cysteine peptide fold change” value reads like this: (10 µM) 0.0524; (50 µM) 0.191.

For the target “SIRT5_Q9NXA8_293+303_FHFQGPCGTTLPEALACHENETVS (UniProt Q9NXA8)”, the “probe-labelled cysteine peptide fold change” value (10 µM) was 0.279 and the “probe-labelled cysteine peptide fold change” value (50 µM) turned out to be 0.3.

Take “SLC25A12_O75746_563_AGQTTYSGVIDCFRK (UniProt O75746)”: the “probe-labelled cysteine peptide fold change” value is 0.0727 (10 µM) and -0.109 (50 µM).

Consider “SGTA_O43765_148_LGNYAGAVQDCER (UniProt O43765)”, for which the “probe-labelled cysteine peptide fold change” value (10 µM) was 0.191 and the “probe-labelled cysteine peptide fold change” value (50 µM) is -0.104.

“SH3KBP1_Q96B97_301_DCIDVGWWEGELNGRR (UniProt Q96B97)”: the “probe-labelled cysteine peptide fold change” value reads like this: (10 µM) 0.0534; (50 µM) -0.22.

As for “SH3GLB1_Q9Y371_121_CGETQKR (UniProt Q9Y371)”, the “probe-labelled cysteine peptide fold change” value was -0.0376 (10 µM) and -0.383 (50 µM).

Consider “SIK3_Q9Y2K2_655_QLQQECEQLQK (UniProt Q9Y2K2)”, for which the “probe-labelled cysteine peptide fold change” value by setting is: (10 µM) 0.117; (50 µM) -0.233.

In the case of “SKIV2L_Q15477_913_LFLPEGPCDHTVVK (UniProt Q15477)”, the “probe-labelled cysteine peptide fold change” value was -0.034 (10 µM) and 0.0129 (50 µM).

For the target “SETD1B_Q9UPS6_1746_EHVTGCAR (UniProt Q9UPS6)”, the “probe-labelled cysteine peptide fold change” value (10 µM) is -0.0461 and the “probe-labelled cysteine peptide fold change” value (50 µM) is 0.0454.

For the target “SERPINB8_P50452_128_FYQAELEELSFAEDTEECR (UniProt P50452)”, the “probe-labelled cysteine peptide fold change” value is, setting by setting: (10 µM) 0.135; (50 µM) 0.484.

In the case of “SKP1_P63208_62_VIQWCTHHK (UniProt P63208)”, the “probe-labelled cysteine peptide fold change” value amounted to 0.181 (10 µM) and 0.677 (50 µM).
